The list does not hold the whole screen: it gathers tests that were run many times, whatever their T/C, doses with no T/C, and many T/C values between a quarter and a half above the control. Further doses and runs are listed elsewhere. T/C: endpoint of the treated group in % of that of the vehicle group. Some doses have a count of surviving animals in place of a T/C: the source files T/C as zero there, which appears to mark a toxic dose or a test without result, not a measured value. Some survivor counts are full or nearly so, which does not show that the dose was tolerated: the source hardly ever lists a survival T/C far under the control, and the zero likely stands for such cases as well. Counts of survivors are from the toxicity check (mostly the fifth day) where no day follows; animals may have died later. Schedules are NCI's codes, read here as Q, the interval in days (D) or hours (H), X, the number of doses. Marks such as (2×) count equal records among those shown. Some entries were tested several times; their values stand side by side, smallest first. Where survival is the endpoint, the PubChem record calls one and a half times the control and up active, and a quarter to a half above the control has no call in these data; cut-offs in other NCI protocols can differ. Some T/C values carry the count of animals alive at the toxicity check (mostly the fifth day); without a count, all were alive then.

The test has as its system BDF1 mice, B16 melanoma ip, median survival T/C. In words: NCI In Vivo Anticancer Drug Screen. Data for tumor model B16 Melanoma (intraperitoneal) in B6D2F1 (BDF1) mice. To be noted: T/C endpoint: median survival time, higher T/C = longer survival. Put shortly: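 Read-out: survival or tumor size, given as treated/control ratio. Controls received vehicle only; animals bore transplantable tumors.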

[1] abbreviates: dose: 100.0 mg/kg/injection, schedule: Q01DX009 (ip), vehicle: Klucel (hydroxypropylcellulose) (HPC).
The mark [2] stands for this setting: dose: 200.0 mg/kg/injection, schedule: Q01DX009 (ip), vehicle: saline with Tween-80.
[3] abbreviates: dose: 400.0 mg/kg/injection, schedule: Q01DX009 (ip), vehicle: saline with Tween-80.
[4] abbreviates: dose: 400.0 mg/kg/injection, schedule: Q01DX009 (ip), vehicle: Klucel (hydroxypropylcellulose) (HPC).
The mark [5] stands for this setting: dose: 50.0 mg/kg/injection, schedule: Q01DX009 (ip), vehicle: saline.
[6] abbreviates: dose: 100.0 mg/kg/injection, schedule: Q04DX003 (ip), vehicle: saline.
[7] abbreviates: dose: 12.5 mg/kg/injection, schedule: Q04DX003 (ip), vehicle: saline with Tween-80.
Setting [8] is: dose: 25.0 mg/kg/injection, schedule: Q01DX009 (ip), vehicle: saline.
[9] abbreviates: dose: 50.0 mg/kg/injection, schedule: Q01DX009 (ip), vehicle: saline with Tween-80.
The mark [10] stands for this setting: dose: 100.0 mg/kg/injection, schedule: Q01DX009 (ip), vehicle: saline with Tween-80.
Setting [11] is: dose: 50.0 mg/kg/injection, schedule: Q01DX009 (ip), vehicle: Klucel (hydroxypropylcellulose) (HPC).

Take `Nc1nc(O)c(CC(=O)O)s1`: the survivor count reads like this: (dose: 3.12 mg/kg/injection, schedule: Q01DX009 (ip), vehicle: Klucel (hydroxypropylcellulose) (HPC)) 10 of 10; (dose: 6.25 mg/kg/injection, schedule: Q01DX009 (ip), vehicle: Klucel (hydroxypropylcellulose) (HPC)) 10 of 10; (dose: 25.0 mg/kg/injection, schedule: Q01DX009 (ip), vehicle: Klucel (hydroxypropylcellulose) (HPC)) 10 of 10; under setting [1], 10 of 10.
For the molecule `c1ccc2c(c1)[As]=c1ccccc1=[As]2` (centres undefined), the survivor count (dose: 12.0 mg/kg/injection, schedule: Q01DX009 (ip), vehicle: saline with Tween-80) was 9 of 10.
For the molecule `C/C(=N\[N+](C)(C)C)c1ccc2ccccc2c1`, under setting [1], the survivor count was 5 of 10.
Take `O=C(O)CSc1nc(-c2ccccc2)c(-c2ccccc2)n1-c1ccccn1`: the survivor count reads like this: (dose: 200.0 mg/kg/injection, schedule: Q01DX009 (ip), vehicle: water) 6 of 10; (dose: 400.0 mg/kg/injection, schedule: Q01DX009 (ip), vehicle: water) 0 of 10.
With `Nc1ccc(S(=O)(=O)CCCl)cc1`, the survivor count (dose: 50.0 mg/kg/injection, schedule: Q04DX003 (ip), vehicle: Klucel (hydroxypropylcellulose) (HPC)) is recorded as 10 of 10 and the survivor count (dose: 100.0 mg/kg/injection, schedule: Q04DX003 (ip), vehicle: Klucel (hydroxypropylcellulose) (HPC)) is 10 of 10.
As for `C#CCOCC(O)CCl` (centres undefined), the survivor count by setting is: under setting [2], 6 of 6; under setting [3], 1 of 6.
Turning to `COc1ccc(Cl)cc1NC(=O)c1ccccc1C(=O)O`, under setting [4], the survivor count was 5 of 10.
For `Oc1c(Br)cc(Br)cc1/C=N/N=C/c1cc(Br)cc(Br)c1O`, under setting [4], the survivor count is recorded as 10 of 10.
Take `COc1ccc2c(ccc[n+]2C)c1`: the survivor count by setting is: under setting [5], 8 of 10; under setting [6], 0 of 10.
In the case of `COc1cccc2c1C(=O)c1c(O)c3c(c(O)c1C2=O)C[C@H](O)C[C@@H]3OC1CC(N)C(O)C(C)O1` (some centres undefined), the T/C (dose: 6.25 mg/kg/injection, schedule: Q01DX001 (ip), vehicle: water) was 149 % of control. Moreover, the survivor count (dose: 100.0 mg/kg/injection, schedule: Q01DX001 (ip), vehicle: water) is 1 of 10 and 7 of 10; the survivor count (dose: 200.0 mg/kg/injection, schedule: Q01DX001 (ip), vehicle: water) is 0 of 10 and 2 of 10; the survivor count (dose: 400.0 mg/kg/injection, schedule: Q01DX001 (ip), vehicle: water) was 0 of 10 (2×).
Consider `Cc1ccc2no[n+]([O-])c2c1[N+](=O)[O-]`, for which the survivor count under setting [2] is 6 of 10 and the survivor count under setting [3] is listed as 0 of 10.
As to `COc1cccc(OC)c1C(c1c(OC)cccc1OC)c1c(OC)cccc1OC`, under setting [7], the T/C was 132 % of control [9 of 10 alive].
For the molecule `CC1CN1P(=O)(N1CC1C)N1CC1C` (centres undefined), under setting [8], the T/C was 134 % of control. Besides, the survivor count reads like this: under setting [5], 9 of 10 and 10 of 10; (dose: 100.0 mg/kg/injection, schedule: Q01DX009 (ip), vehicle: saline) 10 of 10; (dose: 200.0 mg/kg/injection, schedule: Q04DX003 (ip), vehicle: saline) 7 of 10.
In the case of `CC1(C)N=C(N)N=C(N)N1c1ccc(CNC(=O)Nc2cccc(S(=O)(=O)F)c2)cc1`, the T/C reads like this: under setting [6], 138 % of control; (dose: 150.0 mg/kg/injection, schedule: Q04DX003 (ip), vehicle: saline) 128 % of control; (dose: 225.0 mg/kg/injection, schedule: Q04DX003 (ip), vehicle: saline) 143 % of control.
Regarding `[CH3][Sn]([CH3])([CH3])[S]C(=S)N1CCOCC1`, the survivor count (dose: 3.0 mg/kg/injection, schedule: Q01DX009 (ip), vehicle: Klucel (hydroxypropylcellulose) (HPC)) is given as 0 of 10.
For the molecule `CCCCn1cnc2c(=S)nc[nH]c21`, the survivor count reads like this: under setting [9], 6 of 6; under setting [10], 6 of 6; under setting [2], 6 of 6; under setting [3], 6 of 6.
As for `CC(CN1CCN(C)CC1)CN1c2ccccc2Sc2ccc(C(F)(F)F)cc21` (centres undefined), the survivor count under setting [8] is given as 10 of 10.
As to `O=C(CCl)c1ccc(O)c(O)c1`, the survivor count under setting [11] is on record as 9 of 10; the survivor count under setting [1] is 0 of 10; the survivor count (dose: 150.0 mg/kg/injection, schedule: Q01DX009 (ip), vehicle: Klucel (hydroxypropylcellulose) (HPC)) is recorded as 0 of 10.
As to `CCC1=C(C[C@H]2NCCc3cc(OC)c(OC)cc32)C[C@H]2c3cc(OC)c(OC)cc3CCN2C1`, the T/C by setting is: (dose: 2.0 mg/kg/injection, schedule: Q01DX005 (ip), vehicle: saline) 125 % of control [9 of 10 alive]; (dose: 8.0 mg/kg/injection, schedule: Q01DX005 (ip), vehicle: saline) 140 % of control; (dose: 8.0 mg/kg/injection, schedule: Q01DX009 (ip), vehicle: Klucel (hydroxypropylcellulose) (HPC)) 127 % of control; (dose: 8.0 mg/kg/injection, schedule: Q01DX009 (ip), vehicle: saline, evaluated on day 45) 125 % of control [9 of 10 alive]; (dose: 8.0 mg/kg/injection, schedule: Q01DX009 (ip), vehicle: saline, evaluated on day 60) 136 % of control; (dose: 16.0 mg/kg/injection, schedule: Q01DX005 (ip), vehicle: saline) 146 % of control. In addition, the T/C (dose: 16.0 mg/kg/injection, schedule: Q01DX009 (ip), vehicle: Klucel (hydroxypropylcellulose) (HPC)) was 141 % of control. The survivor count (dose: 16.0 mg/kg/injection, schedule: Q01DX009 (ip), vehicle: saline) is 10 of 10 (2×); the survivor count (dose: 32.0 mg/kg/injection, schedule: Q01DX005 (ip), vehicle: saline) is recorded as 4 of 10; the survivor count (dose: 32.0 mg/kg/injection, schedule: Q01DX009 (ip), vehicle: Klucel (hydroxypropylcellulose) (HPC)) is 2 of 10; the survivor count (dose: 32.0 mg/kg/injection, schedule: Q01DX009 (ip), vehicle: saline) is 0 of 10 and 2 of 10.
For `COc1cc(C(=O)O)c2c(c1C)OC(=O)c1c(C)cc(O)c(C=O)c1O2`, the T/C under setting [7] was 126 % of control [9 of 10 alive]; the T/C (dose: 16.5 mg/kg/injection, schedule: Q01DX009 (ip), vehicle: saline with Tween-80) is 128 % of control; the T/C (dose: 25.0 mg/kg/injection, schedule: Q01DX009 (ip), vehicle: saline with Tween-80) was 134 % of control; the T/C (dose: 37.5 mg/kg/injection, schedule: Q01DX009 (ip), vehicle: saline with Tween-80) was 128 % of control. In addition, the survivor count under setting [11] was 9 of 10; the survivor count under setting [9] is given as 4 of 10; the survivor count under setting [10] is on record as 4 of 10; the survivor count (dose: 100.0 mg/kg/injection, schedule: Q04DX003 (ip), vehicle: saline with Tween-80) is recorded as 1 of 10; the survivor count (dose: 200.0 mg/kg/injection, schedule: Q04DX003 (ip), vehicle: saline with Tween-80) is reported as 0 of 10; the survivor count (dose: 400.0 mg/kg/injection, schedule: Q04DX003 (ip), vehicle: saline with Tween-80) is on record as 0 of 10.
In the case of `O=C(CCN1CC1)Nc1cccc(NC(=O)CCN2CC2)c1`, the T/C (dose: 2.5 mg/kg/injection, schedule: Q01DX009 (ip), vehicle: Klucel (hydroxypropylcellulose) (HPC)) is 130 % of control [8 of 10 alive]. In addition, the survivor count is, setting by setting: (dose: 20.0 mg/kg/injection, schedule: Q01DX009 (ip), vehicle: Klucel (hydroxypropylcellulose) (HPC)) 9 of 10 and 10 of 10; (dose: 40.0 mg/kg/injection, schedule: Q01DX009 (ip), vehicle: Klucel (hydroxypropylcellulose) (HPC)) 5 of 10 and 7 of 10; (dose: 80.0 mg/kg/injection, schedule: Q01DX009 (ip), vehicle: Klucel (hydroxypropylcellulose) (HPC)) 2 of 10.

(Values after PubChem BioAssay AID192 (DTP/NCI, 2004).)
